Test results: patent US20240115588A1, “USE OF PROTEASOME INHIBITORS IN THE TREATMENT OF CORONAVIRUS INFECTIONS” (priority 2021, published 2024)
At least one structure is not confirmed: it was looked up by name or label, or the drawing left a doubt.

What was measured:
[1] = tested on: 2019 Novel Coronavirus, Isolate USA-WA1/2020 (SARS-CoV-2); assay: In vitro efficacy in Calu-3 lung cells, immunostaining assay; assay type: cell-based; conditions: whether EC100 was achieved
[2] = tested on: 2019 Novel Coronavirus, Isolate USA-WA1/2020 (SARS-CoV-2); assay: In vitro efficacy in Vero E6 cells, immunostaining assay (second testing series); assay type: cell-based; conditions: whether EC100 was achieved

In the case of `CCC(CC)COC(=O)[C@H](C)N[P@](=O)(OC[C@H]1O[C@@](C#N)(c2ccc3c(N)ncnn23)[C@H](O)[C@@H]1O)Oc1ccccc1` [Remdesivir], the EC100 [1] is reported as “Achieved” and the EC100 [2] is reported as “Achieved”.
